Source: PMC8767690
These are yes or no findings as the source states them, for the method shown. In cells and extracts the contact can be indirect. Some binding calls cover weakened binding; strength is not graded here.

By UniProt entry, the sequences of proteins in these tests, tags left out.
UniProt P0DKX0: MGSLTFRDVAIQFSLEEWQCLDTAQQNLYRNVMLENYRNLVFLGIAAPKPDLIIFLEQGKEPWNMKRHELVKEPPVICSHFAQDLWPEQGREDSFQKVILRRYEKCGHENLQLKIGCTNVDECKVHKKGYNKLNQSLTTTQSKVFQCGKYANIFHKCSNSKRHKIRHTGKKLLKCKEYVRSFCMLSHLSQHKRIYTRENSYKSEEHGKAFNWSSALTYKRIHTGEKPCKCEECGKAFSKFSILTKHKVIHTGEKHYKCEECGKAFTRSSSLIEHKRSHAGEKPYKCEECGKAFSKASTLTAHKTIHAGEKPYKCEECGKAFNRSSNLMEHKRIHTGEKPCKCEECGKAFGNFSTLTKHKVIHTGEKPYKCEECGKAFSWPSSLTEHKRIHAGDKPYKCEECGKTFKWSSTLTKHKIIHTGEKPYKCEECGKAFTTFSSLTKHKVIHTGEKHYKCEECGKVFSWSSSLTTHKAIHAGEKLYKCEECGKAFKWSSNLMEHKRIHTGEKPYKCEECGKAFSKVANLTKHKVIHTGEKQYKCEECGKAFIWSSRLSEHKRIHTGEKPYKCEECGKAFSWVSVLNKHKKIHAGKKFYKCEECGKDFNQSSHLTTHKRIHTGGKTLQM
UniProt Q13263: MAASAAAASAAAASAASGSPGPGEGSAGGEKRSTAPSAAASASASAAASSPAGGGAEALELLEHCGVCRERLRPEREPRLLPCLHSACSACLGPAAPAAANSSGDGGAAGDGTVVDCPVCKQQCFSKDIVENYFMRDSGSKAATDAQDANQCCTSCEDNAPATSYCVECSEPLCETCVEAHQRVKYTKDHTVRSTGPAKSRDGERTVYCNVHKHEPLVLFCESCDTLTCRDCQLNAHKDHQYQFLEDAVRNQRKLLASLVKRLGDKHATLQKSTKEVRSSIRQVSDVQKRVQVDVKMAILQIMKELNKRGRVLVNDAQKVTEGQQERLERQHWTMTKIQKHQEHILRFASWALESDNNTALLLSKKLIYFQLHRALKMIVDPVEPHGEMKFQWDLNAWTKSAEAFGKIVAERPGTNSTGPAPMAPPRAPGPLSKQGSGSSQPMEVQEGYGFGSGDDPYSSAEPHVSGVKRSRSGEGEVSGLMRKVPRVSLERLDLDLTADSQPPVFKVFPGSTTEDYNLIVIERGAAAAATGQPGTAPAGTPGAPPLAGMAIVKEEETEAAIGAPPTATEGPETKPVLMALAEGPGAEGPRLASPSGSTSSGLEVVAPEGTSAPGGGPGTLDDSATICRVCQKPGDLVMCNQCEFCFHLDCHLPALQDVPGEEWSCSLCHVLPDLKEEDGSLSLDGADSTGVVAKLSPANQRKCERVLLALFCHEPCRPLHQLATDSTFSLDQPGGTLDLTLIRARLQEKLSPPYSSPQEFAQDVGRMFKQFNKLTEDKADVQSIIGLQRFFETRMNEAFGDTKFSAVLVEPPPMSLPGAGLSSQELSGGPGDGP

Target: HA-tagged ZNF728 (human) (UniProt P0DKX0)
Experiment: co-IP; HA immunoprecipitation from 10 million K562 cells overexpressing HA-tagged KZFP (pTRE construct, doxycycline-induced), western blot detection of KAP1; performed as described in ref. 30

Substance: KAP1/TRIM28 (from UniProt Q13263 1-835)
- binding: binds
